# Data reported in PubChem BioAssay AID445 (National Center for Advancing Translational Sciences (NCATS), 2006).
# Some of the results follow. Further columns of the screen follow, without active or inactive calls. The list favours compounds with an active or inconclusive main result. The note in brackets gives the kind of curve behind each potency; many fits are weak.
# Experiment: IkB Signaling
# Settings: ABC-DLBCL IkBa-CBG/CBR dual luciferase ratio (green luciferase fused to IkBa over red control in OCI-Ly3 lymphoma cells), 4 h
# Procedure, shortened: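 Luminescence ratio of IκBα-fused green versus native red beetle luciferase in OCI-Ly3 cells, 4 h post-doxycycline with compound; red signal alone, scaled from basal (0%) to zero light (-100%), flagged nonspecific or cytotoxic effects.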
# [1] = measured here: control luc red channel unless noted
compound,measurement,setting,value
N#Cc1c(-c2ccco2)nc(SCC(=O)Nc2cccc(Cl)c2)[nH]c1=O,AC50,[1],"2.51 µM [falling, full curve, poor fit]"
COc1ccc(-c2c(C)nn3c(-c4ccccc4)cc(-c4ccccc4)nc23)cc1OC,AC50,[1],"1.26 µM [rising, full curve]"
COc1ccc(CCN2C(=O)c3[nH]nc(-c4ccccc4O)c3C2c2ccc(O)c(OC)c2)cc1 (centres undefined),AC50,[1],"25.1 µM [falling, partial curve]"
COC(=O)c1ccc(NC(=O)CCNS(=O)(=O)c2cccc3nsnc23)cc1,AC50,[1],"39.8 µM [falling, single point]"
O=c1cc(-c2c(F)c(F)c(F)c(F)c2F)oc2c(F)c(F)c(F)c(F)c12,AC50,[1],"3.16 µM [falling, full curve]"
CCC(CC)C(=O)Nc1nnc2n1CCS2,AC50,[1],"0.316 µM [rising, full curve, poor fit]"
O=C(Nc1ccccc1)N1CC=C(c2ccc(F)cc2)CC1,AC50,[1],"3.98 µM [falling, partial curve]"
Cc1ccc(S(=O)(=O)CCC(=O)c2ccc(O)cc2O)cc1,AC50,[1],"31.6 µM [falling, partial curve]"
O=C(CCC1CCCCC1)N1CCN(Cc2ccc3c(c2)OCO3)CC1,AC50,[1],"15.8 µM [falling, partial curve]"
CN(C)c1ccc(CNC(=O)c2ccc(NC(=O)c3nsc4ccccc34)cc2)cc1,AC50,[1],"0.158 µM [falling, full curve]"
Cc1c(C(=O)NCc2ccccc2Cl)cccc1-n1cnc2cccnc21,AC50,[1],"20 µM [falling, partial curve]"
Cc1cccc(CNC(=O)c2ccc3nc(-c4ccccc4)c(-c4ccccc4)nc3c2)c1,AC50,[1],"1 µM [falling, partial curve, poor fit]"
CCC1(c2ccccc2)C(=O)NCNC1=O,AC50,[1],"15.8 µM [rising, partial curve, poor fit] [measured here: IkB-luc green channel]"
Cc1ccc(CCNc2ncnc3onc(C)c23)cc1,AC50,[1],"2.51 µM [falling, partial curve]"
CCC(=O)N1c2ccccc2NC2=C(C(=O)CCC2)C1c1cccnc1 (centres undefined),AC50,[1],"10 µM [falling, partial curve]"
Cc1ccc2occ(CC(=O)N(Cc3ccc(N(C)C)cc3)C3CCS(=O)(=O)C3)c2c1 (centres undefined),AC50,[1],"39.8 µM [falling, single point]"
CCOc1ccc(CNC(=O)CCC(=O)N2CCSc3ccccc32)cc1,AC50,[1],"20 µM [falling, partial curve]"
CC1=Nc2cc(C(=O)NC3CCCC3)ccc2Sc2ccc(Br)cc21,AC50,measured here: IkB-luc green channel,"3.98 µM [rising, single point]"
same,AC50,measured here: control luc red channel,"39.8 µM [falling, single point]"
COCCCNC(=O)C1CCCN(S(=O)(=O)c2ccc3c(c2)oc(=O)n3C)C1 (centres undefined),AC50,[1],"12.6 µM [falling, single point]"
CCOCCCn1c(SCC(=O)NCCCOC)nc2c(sc3ccccc32)c1=O,AC50,[1],"15.8 µM [rising, partial curve, poor fit]"
CCOCCCNC(=O)c1c[nH]c2ccc(S(=O)(=O)Nc3cccc(Cl)c3C)cc2c1=O,AC50,[1],"15.8 µM [falling, partial curve]"
Cn1c(=O)oc2cc(S(=O)(=O)N3CCCC(C(=O)N4CCN(c5ccccc5F)CC4)C3)ccc21 (centres undefined),AC50,[1],"15.8 µM [falling, partial curve]"
Cc1ccc(Cn2c(=O)n(CC3CCC(C(=O)N4CCOCC4)CC3)c(=O)c3sccc32)cc1 (centres undefined),AC50,[1],"5.01 µM [rising, full curve, poor fit]"
COC(=O)c1ccccc1NC(=O)C1CCN(S(=O)(=O)c2cc(C)ccc2OC)CC1,AC50,[1],"25.1 µM [falling, single point]"
COC(=O)c1cc2oc3ccccc3c2n1Cc1c(F)cccc1Cl,AC50,[1],"0.2 µM [falling, partial curve, poor fit]"
COc1ccc2nc(N3CCN(C(=O)C4CC4)CC3)sc2c1,AC50,[1],"2 µM [rising, partial curve]"
COc1ccc(NC(=O)N2CCc3c([nH]c4ccc(OC)cc34)C2c2ccc(OC)cc2)cc1 (centres undefined),AC50,[1],"5.01 µM [falling, partial curve]"
CCc1cccc(NC(=O)CN2CCCN(Cc3cccc(C)c3)S2(=O)=O)c1,AC50,[1],"10 µM [falling, partial curve]"
COc1ccc(N2CCN(C(=O)c3ccc4nc(N5CCC(C)CC5)sc4c3)CC2)cc1,AC50,[1],"12.6 µM [falling, partial curve]"
CC(C)N(Cc1nc(-c2ccc(Cl)cc2)no1)C(=O)CCCN1C(=O)c2ccccc2C1=O,AC50,[1],"6.31 µM [falling, partial curve]"
CC(NC(=O)c1sc2ncccc2c1-n1cccc1)c1ccccc1 (centres undefined),AC50,[1],"10 µM [falling, partial curve]"
CCSc1nnc(NC(=O)c2cc(C)on2)s1,AC50,[1],"10 µM [falling, partial curve]"
Cc1ccc(CCNC(=O)C2CCCN(C(=O)c3cc4sccc4n3C)C2)cc1 (centres undefined),AC50,[1],"25.1 µM [falling, single point]"
COC(=O)c1cc(NC(=O)Cn2nc(C)n3cccc3c2=O)cc(C(=O)OC)c1,AC50,[1],"2 µM [falling, full curve]"
CC(C)c1cc(C(=O)Nc2cc(Cl)ccc2O)no1,AC50,[1],"12.6 µM [falling, partial curve]"
CCOC(=O)C1=C(CS(=O)(=O)c2ccc(Br)cc2)NC(=O)NC1c1ccccc1 (centres undefined),AC50,[1],"20 µM [falling, partial curve]"
Cc1ccccc1CNC(=O)c1ccc(-c2nc(CS(=O)(=O)c3ccccc3)c(C)o2)cc1,AC50,[1],"3.98 µM [falling, full curve]"
COc1ccc(C)cc1NC(=O)CN(c1cc(C(F)(F)F)ccc1Cl)S(C)(=O)=O,AC50,[1],"20 µM [falling, single point]"
CC(Sc1nnc(-c2ccc(O)cc2)o1)C(=O)Nc1cccc2ccccc12 (centres undefined),AC50,[1],"1 µM [falling, full curve]"
O=C(NCc1ccco1)c1cccs1,AC50,[1],"158 nM [rising, full curve, poor fit] [measured here: IkB-luc green channel]"
CCOC(=O)c1sc2ccccc2c1S(=O)(=O)Nc1cccc(C(F)(F)F)c1,AC50,[1],"15.8 µM [falling, partial curve]"
Cc1cccc(C(=O)NCCc2sc(-c3ccccc3)nc2C)c1,AC50,[1],"39.8 µM [falling, single point]"
CCOC(=O)C1CCCN(c2nc3ccccc3nc2C(C#N)C(=O)OCC)C1 (centres undefined),AC50,[1],"39.8 µM [falling, single point]"
Cc1coc2c1c(C)cc1oc(=O)cc(C)c12,AC50,[1],"1.58 µM [rising, full curve]"
Cc1oc(-c2cccc(Cl)c2)nc1CN1CCCC(C(=O)NCc2ccc(F)cc2)C1 (centres undefined),AC50,[1],"20 µM [falling, partial curve]"
CCCCN(C)C(=O)C(Cc1ccccc1)NS(=O)(=O)c1ccc2c(c1)c(=O)n(C)c(=O)n2C (centres undefined),AC50,[1],"25.1 µM [falling, single point]"
Cc1ccc(CSCC(=O)N2CCN(c3ccc(F)cc3)CC2)cc1,AC50,[1],"15.8 µM [falling, partial curve]"
Cc1ccc2c(=O)cc(CSc3ccccc3)[nH]c2c1C,AC50,[1],"20 µM [falling, single point]"
CC(=O)c1cccc(S(=O)(=O)NCCc2csc3nc(-c4ccc(F)cc4)nn23)c1,AC50,[1],"25.1 µM [falling, single point]"
CC(=O)Oc1c(S(=O)(=O)c2ccc(C)cc2)c(C)nn1C(C)(C)C,AC50,[1],"12.6 µM [falling, partial curve]"
Cc1cccc(N(CC(=O)Nc2ccc(Br)cc2)S(C)(=O)=O)c1C,AC50,[1],"39.8 µM [falling, single point]"
COc1ccc(C(=O)NCc2ccc3c(c2)CCN3C(=O)c2ccncc2)cc1,AC50,[1],"0.01 µM [rising, full curve, poor fit]"
Fc1ccc(-c2nnc(NC3=NCCCCC3)o2)cc1,AC50,[1],"0.631 µM [falling, full curve]"
CN1c2ccccc2-c2nc(SCC(=O)Nc3ccccc3C(F)(F)F)ncc2S1(=O)=O,AC50,[1],"39.8 µM [falling, single point]"
CCCCOC(=O)n1c(=O)oc2cc(S(=O)(=O)N3CCCCC3)ccc21,AC50,[1],"20 µM [falling, partial curve]"
CCN(Cc1ccccc1)C(=O)Cn1c(=O)n(Cc2ccccc2)c(=O)c2c1c1cc(OC)ccc1n2C,AC50,[1],"3.16 µM [falling, partial curve]"
O=C(NCC(c1cccnc1)N1CCN(Cc2ccccc2)CC1)C(=O)Nc1ccc(Cl)cc1 (centres undefined),AC50,[1],"39.8 µM [falling, single point]"
CCC(Sc1nnc(-c2ccc(OC)cc2)c(-c2ccc(OC)cc2)n1)C(=O)NC1CCCCC1 (centres undefined),AC50,[1],"10 µM [falling, partial curve, poor fit]"
Cc1ccc(-n2c3nc(=O)n(C)c(=O)c-3cc3c(Cl)cccc32)c(C)c1,AC50,[1],"5.01 µM [falling, partial curve]"
CC1CCCN(S(=O)(=O)c2ccc(NC(=O)c3nc(SC(C)C)ncc3Cl)cc2)C1 (centres undefined),AC50,[1],"39.8 µM [falling, single point]"
COc1ccccc1/C=C/c1nc(C#N)c(N2CCCCCC2)o1,AC50,[1],"39.8 µM [falling, single point]"
COc1ccc(N2CC(NC(=O)c3ccc(S(=O)(=O)N4CCCC4)cc3)CC2=O)cc1 (centres undefined),AC50,[1],"2 µM [rising, partial curve]"
Cn1nccc1C(=O)NCc1ccc2c(c1)CCN2C(=O)c1ccc(F)cc1,AC50,[1],"10 µM [falling, partial curve]"

# An excerpt of these results, tab-delimited:
compound	measurement	setting	value
COc1ccc(-c2c(C)nn3c(-c4ccccc4)cc(-c4ccccc4)nc23)cc1OC	AC50	[1]	1.26 µM [rising, full curve]
COc1ccc(CCN2C(=O)c3[nH]nc(-c4ccccc4O)c3C2c2ccc(O)c(OC)c2)cc1 (centres undefined)	AC50	[1]	25.1 µM [falling, partial curve]
COC(=O)c1ccc(NC(=O)CCNS(=O)(=O)c2cccc3nsnc23)cc1	AC50	[1]	39.8 µM [falling, single point]
